{
  "source": "paper PMC5014334",
  "target": "T1, synthetic peptide vimentin (aa 45–65)",
  "T1 sequence (peptide)": "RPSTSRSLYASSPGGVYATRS",
  "assay": "far-Western, overlay or dot blot; dot blot with synthetic peptide vimentin-(45–65) and purified GST-p17; GST and IgG as negative controls; who was dotted is not told; both purified",
  "note": "Results are given in words; binding and its absence hold for the method and conditions named. Binding can be weak; no strength is given.",
  "data": [
    {"substance": "GST-p17 fusion protein (avian reovirus (ARV), strain S1133)", "values": [
      {"measurement": "binding", "value": "binds"}
    ]}
  ]
}
